No constants are given. Whether binding was seen depends on the method and setting. Some results given as binding are weak or reduced against the parent protein; the word gives no strength.
Columns and labels:
SMARCD1 (human) = SMARCD1 (human) (UniProt Q96GM5); assay: cross-linking; cross-linking mass spectrometry (XL-MS) of the ncBAF complex, used to confirm the built and AlphaFold3-predicted models; conditions not shown; both purified
SMARCC1 (human) = SMARCC1 (human) (UniProt Q92922); assay: as above

binding (SMARCD1 (human)): binds
binding (SMARCC1 (human)): binds
Substance: GLTSCR1L (from UniProt Q6AI39 1-1079)
